Measured values: patent US10053448B2, “Substituted tetrazolinones for controlling plant diseases” (SUMITOMO CHEMICAL COMPANY, LIMITED, priority 2015, dated 2018)
Some results were stated once for a whole list of compounds, not compound by compound. At least one structure is not confirmed: it was looked up by name or label, or the drawing left a doubt.

Legend:
[1] = system: soybean frog eye leaf spot fungus (Cercospora sojina); test: Test Example 12: soybean frog eye leaf spot, spray after inoculation; assay type: in vivo; settings: soybean (TACHINAGAHA), 200 ppm foliar spray five days after the inoculation
[2] = system: cucumber corynespora leaf spot fungus (Corynespora cassiicola); test: Test Example 9: cucumber corynespora leaf spot, foliar spray; assay type: in vivo; settings: cucumber (SAGAMI HANJIRO), 200 ppm foliar spray, inoculated after one day
[3] = system: soybean rust fungus (Phakopsora pachyrhizi); test: Test Example 7: soybean rust, foliar spray; assay type: in vivo; settings: soybean (KUROSENGOKU), 200 ppm foliar spray, inoculated after 4 days
[4] = system: cucumber downy mildew fungus (Pseudoperonospora cubensis); test: Test Example 11: cucumber downy mildew, foliar spray; assay type: in vivo; settings: cucumber (SAGAMI HANJIRO), 200 ppm foliar spray, inoculated after one day
[5] = system: wheat leaf blotch fungus (Septoria tritici); test: Test Example 4: wheat leaf blotch, foliar spray; assay type: in vivo; settings: wheat (APOGEE), 500 ppm foliar spray, inoculated after 4 days
[6] = system: kidney bean stem rot fungus (Sclerotinia sclerotiorum); test: Test Example 3: kidney bean stem rot, foliar spray; settings: kidney bean (NAGAUZURA SAITO), 500 ppm foliar spray, four days after inoculation
[7] = system: cucumber stem rot fungus (Sclerotinia sclerotiorum); test: Test Example 13: cucumber stem rot, root immersion; settings: cucumber (SAGAMI HANJIRO), roots immersed in 0.25 mg/mL, inoculated after 8 days
[8] = system: wheat leaf blotch fungus (Septoria tritici); test: Test Example 18: wheat leaf blotch, foliar spray; assay type: in vivo; settings: wheat (APOGEE), 200 ppm foliar spray, inoculated after 4 days
[9] = system: kidney bean stem rot fungus (Sclerotinia sclerotiorum); test: Test Example 17: kidney bean stem rot, foliar spray; settings: kidney bean (NAGAUZURA SAITO), 200 ppm foliar spray, four days after inoculation

Measured: area of lesion spots on the treated plant, of that on an untreated plant

COc1cccc(-n2nnn(C)c2=O)c1COc1cc(C)c(-c2ccn(C3CC3)n2)cc1C [compound 1]
≤ 30%: all assays above

Cc1cc(-c2ccn(C3CC3)n2)c(C)cc1OCc1c(C)cccc1-n1nnn(C)c1=O [compound 2]
≤ 30%: all assays above

Cc1cc(-c2cc(C)n(C3CC3)n2)c(C)cc1OCc1c(C)cccc1-n1nnn(C)c1=O [compound 3]
not listed: [7]
≤ 30%: all other assays above

Cc1cc(-c2ccn(C3CC3)n2)c(C)cc1OCc1ccccc1-n1nnn(C)c1=O [compound 4]
≤ 30%: [1] | [2] | [3] | [8] | [9]

Cc1cc(-c2ccn(C3CC3)n2)c(C)cc1OCc1c(Cl)cccc1-n1nnn(C)c1=O [compound 5]
≤ 30%: [1] | [2] | [3] | [8] | [9]

Cc1cc(-c2ccn(C3CC3)n2)c(C)cc1OCc1c(C2CC2)cccc1-n1nnn(C)c1=O [compound 6]
≤ 30%: [1] | [8]
